Test results published in paper PMC7494913.
These are yes or no findings as the source states them, for the method shown. In cells and extracts the contact can be indirect. Some entries that bind do so weakly or less than the wild type.

Protein sequences, listed by entry. Tags and fused reporters are not part of them.
UniProt P17676: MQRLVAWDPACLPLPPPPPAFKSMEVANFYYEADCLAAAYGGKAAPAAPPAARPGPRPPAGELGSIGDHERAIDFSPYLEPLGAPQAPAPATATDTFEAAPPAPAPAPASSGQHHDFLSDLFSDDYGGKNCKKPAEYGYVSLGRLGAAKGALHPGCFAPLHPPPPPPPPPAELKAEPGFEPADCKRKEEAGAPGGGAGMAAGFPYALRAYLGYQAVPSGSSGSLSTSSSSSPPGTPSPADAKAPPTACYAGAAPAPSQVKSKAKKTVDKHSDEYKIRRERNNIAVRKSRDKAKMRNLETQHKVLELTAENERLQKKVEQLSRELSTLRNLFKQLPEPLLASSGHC
UniProt Q13547: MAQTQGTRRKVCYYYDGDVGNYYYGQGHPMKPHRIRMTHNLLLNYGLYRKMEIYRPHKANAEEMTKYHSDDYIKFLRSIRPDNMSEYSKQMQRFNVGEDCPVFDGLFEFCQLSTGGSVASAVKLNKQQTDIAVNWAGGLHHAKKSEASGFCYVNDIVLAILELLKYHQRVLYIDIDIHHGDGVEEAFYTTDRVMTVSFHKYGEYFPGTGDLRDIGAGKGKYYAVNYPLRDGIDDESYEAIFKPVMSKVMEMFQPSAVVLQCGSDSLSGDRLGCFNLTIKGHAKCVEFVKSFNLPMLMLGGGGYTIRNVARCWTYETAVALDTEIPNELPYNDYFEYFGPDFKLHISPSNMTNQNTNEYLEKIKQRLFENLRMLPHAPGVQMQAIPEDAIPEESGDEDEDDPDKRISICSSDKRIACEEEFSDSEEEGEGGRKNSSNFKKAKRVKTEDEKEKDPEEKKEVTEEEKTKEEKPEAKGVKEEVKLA

Target: CCAAT/enhancer-binding protein beta (human (endogenous in patient-derived GBM spheres)) (UniProt P17676)
Experiment: co-IP; lysate of core-like 267 (Fig. 8d) and core-like 1005 (Supplementary Fig. 8b) GBM spheres; precipitated with antibodies against C/EBPβ on magnetic beads (antibody overnight at 4 °C, beads 1 h at room temperature), low-pH elution, HDAC1 detected

**Q.** With HDAC1 (from UniProt Q13547 1-482) as the substance, how does the binding read?
**A.** binds
